Source: PMC10915268 (Parasites, Hosts and Diseases, 2024)

Assays:
[1] = test system: P. falciparum 3D7 (CQ-sensitive strain); experiment: In vitro antimalarial activity, P. falciparum 3D7; assay type: cell-based; settings: Plasmodium falciparum, 3D7, read-out: 3D7 IC50
[2] = test system: P. falciparum K1 (CQ-resistant strain); experiment: In vitro antimalarial activity, P. falciparum K1; assay type: cell-based; settings: Plasmodium falciparum, K1, read-out: K1 IC50

Compound `CCN(CC)CCCC(C)Nc1ccnc2cc(Cl)ccc12` (centres unmarked) [CQ, Chloroquine] has an IC50 [1] of 22.2 ± 11.2 nM and an IC50 [2] of 104 ± 14.9 nM.
